The supplement of paper PMC12889115
The other results are listed elsewhere or left out. These are raw signals, not scaled to a control.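 First-pass screen: polymyxin B was added at a level that permeabilizes the Salmonella outer membrane while sparing the inner membrane. DMSO wells, with and without polymyxin B, defined maximum growth. Because plates differed from one another, each plate's data were ranked separately and the compounds with the lowest OD600 were carried forward as hits.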

Test system: Salmonella enterica serovar Typhimurium SL1344
Assay: bacterial growth OD600 after 18 h with compound and polymyxin B; higher = more bacterial growth (less inhibition)
Conditions: 50 µM, Mueller-Hinton broth

Row | SMILES | bacterial growth OD600 (polymyxin B 1 µg/mL) | bacterial growth OD600 (polymyxin B 0.75 µg/mL)
1 | COc1cc(F)ccc1CN1CCCC(N(C)CCc2ccc(OC)c(OC)c2)C1 (stereo not given) | 1.25 | –
2 | COc1cccc(CN2CCC(C(Cc3ccccc3Cl)N(C)C(=O)c3ccco3)CC2)c1 (stereo not given) | – | 0.669
3 | COCCN1C(=O)CC(CC(=O)N(CC2CCC2)CC2CCCO2)(c2cccc(OC)c2)C1=O (stereo not given) | – | 0.758
4 | O=C(CCOc1ccccc1)Nc1ccnn1C1CCN(C(=O)c2ccco2)CC1 | 0.811 | –
5 | O=C1CCCN1CC(=O)N1CCc2onc(-c3ccc(-c4ccccc4)cc3)c2C1 | – | 0.199
6 | Cc1cccc(C)c1Oc1ncccc1CNC(=O)CCc1[nH]nc(C)c1C | 1.2 | –
7 | NC(=O)C1CCCN(C(=O)CC2(c3ccccc3)CC(=O)N(CCCOc3cccnc3)C2=O)C1 (stereo not given) | – | 0.977
8 | COCc1c(C(=O)NC2CCN(Cc3ccccc3)CC2)cnn1-c1nccc(-c2cccs2)n1 | – | 0.933
9 | Cc1ccc(CN2CCN(Cc3c(F)cccc3F)CC2CCO)cc1 (stereo not given) | 0.769 | –
10 | CCCCn1c(CN2CCCC(C(C)=O)C2)cnc1S(=O)(=O)CC1CCC1 (stereo not given) | 0.82 | –
11 | CC(C)CC(=O)N1CCCC(N2CCN(Cc3ccc4c(c3)OCO4)CC2)C1 (stereo not given) | 0.957 | –
12 | CC(C)CCN(C)c1ccc(C(=O)N2CCC(Oc3cccnc3)CC2)cn1 | – | 0.244
13 | CC(=O)c1cc(CN2CCC(CO)(CCCc3ccccc3)CC2)cs1 | 0.952 | –
14 | Cn1ccnc1C1CCCCN1C(=O)CC1(c2ccccc2)CC(=O)N(Cc2cccs2)C1=O (stereo not given) | – | 0.852
15 | CCn1c(-c2ccccc2F)nc2cc(C(=O)N(C)Cc3ccco3)cc(NC(C)=O)c21 | – | 0.846
16 | CCOC(=O)C1(Cc2ccc(OC)cc2)CCN(S(=O)(=O)c2sccc2C)CC1 | 0.823 | –
17 | Cc1noc(C)c1CC(=O)NCc1nc(NCCCc2ccccc2)c2ccccc2n1 | – | 0.007
18 | CCOC(=O)C1(CCc2ccccc2)CCCN(Cc2nccn2CC)C1 (stereo not given) | 0.001 | –
19 | CC1CN(C(=O)c2csc3nc(-c4ccc(F)cc4)cn23)CCN1C (stereo not given) | – | 0.786
20 | O=C(c1ccc(-c2ccccc2)c(F)c1)C1CCCN(C(=O)c2ccco2)C1 (stereo not given) | 0.105 | –
21 | Cc1ccccc1N1CCN(C2CCCN(C(=O)CC3CCCC3)C2)CC1 (stereo not given) | 0.786 | –
22 | CC(C)Cc1noc(-c2ccc(N(C)CC3COCCO3)nc2)n1 (stereo not given) | 0.944 | –
23 | COc1ccc(CCC(=O)N2CCC(CO)(Cc3ccc(Cl)cc3)CC2)cc1 | 0.017 | –
24 | O=C(Nc1cc(CNC2C3CC4CC(C3)CC2C4)cc(C(=O)N2CCCC2)c1)c1ccccn1 (stereo not given) | – | 0.736
25 | Cc1ccoc1C(=O)N1CCC2(CCCN(Cc3ccc(F)c(F)c3)C2)C1 (stereo not given) | 0.703 | –
26 | COCC1CCCCN1Cc1nc(-c2cc3c(cc2Cl)OCO3)oc1C (stereo not given) | 1.01 | –
27 | COc1ccc(CC2(CCC(=O)NCCC3COc4ccccc4O3)CCC(=O)N2)c(F)c1 (stereo not given) | – | 0.824
28 | COC(=O)c1ccc(CN2CCN(CC=C(C)C)C(CCO)C2)cc1 (stereo not given) | 0.832 | –
29 | C=C(C)CNC(=O)CCc1nnc(Cc2cc(OC)ccc2OC)o1 | 0.838 | –
30 | COCCN1CCCC2(CCN(C(=O)c3cc(F)c(F)cc3F)C2)C1=O (stereo not given) | 0.941 | –

Some of the entries so far, as labelled records:
COCc1c(C(=O)NC2CCN(Cc3ccccc3)CC2)cnn1-c1nccc(-c2cccs2)n1
  bacterial growth OD600 (polymyxin B 0.75 µg/mL): 0.933
Cc1ccc(CN2CCN(Cc3c(F)cccc3F)CC2CCO)cc1 (stereo not given)
  bacterial growth OD600 (polymyxin B 1 µg/mL): 0.769
